# Test results reported in article PMC7494903.
# Chains of the proteins cited; added tags and fusions are not shown.
# UniProt P61289: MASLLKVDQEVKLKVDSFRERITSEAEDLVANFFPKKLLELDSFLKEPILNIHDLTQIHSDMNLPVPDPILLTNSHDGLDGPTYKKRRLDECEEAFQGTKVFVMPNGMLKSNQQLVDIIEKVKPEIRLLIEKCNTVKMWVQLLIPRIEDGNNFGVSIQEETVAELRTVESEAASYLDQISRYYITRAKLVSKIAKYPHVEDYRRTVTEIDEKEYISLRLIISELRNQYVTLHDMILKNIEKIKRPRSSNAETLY
# UniProt P67775: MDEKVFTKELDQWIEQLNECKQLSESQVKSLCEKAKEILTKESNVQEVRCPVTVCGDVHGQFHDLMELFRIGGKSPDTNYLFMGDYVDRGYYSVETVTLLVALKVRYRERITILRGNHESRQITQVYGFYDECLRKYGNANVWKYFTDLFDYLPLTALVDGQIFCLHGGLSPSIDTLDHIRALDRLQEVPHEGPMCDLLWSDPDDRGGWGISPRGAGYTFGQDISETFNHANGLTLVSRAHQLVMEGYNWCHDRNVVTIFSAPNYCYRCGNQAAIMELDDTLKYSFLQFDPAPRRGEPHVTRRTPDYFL
# UniProt O43524: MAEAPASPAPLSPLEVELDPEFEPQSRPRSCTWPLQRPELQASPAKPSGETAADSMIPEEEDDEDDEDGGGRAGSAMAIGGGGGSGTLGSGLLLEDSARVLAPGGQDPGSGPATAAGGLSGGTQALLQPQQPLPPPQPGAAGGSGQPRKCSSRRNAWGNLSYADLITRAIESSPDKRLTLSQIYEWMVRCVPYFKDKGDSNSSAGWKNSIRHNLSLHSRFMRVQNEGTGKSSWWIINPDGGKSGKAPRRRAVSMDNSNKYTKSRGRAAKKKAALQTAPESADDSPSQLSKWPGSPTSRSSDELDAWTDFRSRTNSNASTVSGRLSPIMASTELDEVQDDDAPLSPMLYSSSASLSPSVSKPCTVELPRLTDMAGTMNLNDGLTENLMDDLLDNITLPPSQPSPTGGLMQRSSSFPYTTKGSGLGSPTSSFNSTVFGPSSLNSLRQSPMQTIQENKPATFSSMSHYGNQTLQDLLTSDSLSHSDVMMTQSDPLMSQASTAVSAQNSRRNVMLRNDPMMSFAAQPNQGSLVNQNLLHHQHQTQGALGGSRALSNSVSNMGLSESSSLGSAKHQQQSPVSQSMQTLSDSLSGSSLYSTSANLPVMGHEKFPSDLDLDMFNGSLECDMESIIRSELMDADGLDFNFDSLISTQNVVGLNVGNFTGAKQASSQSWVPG
# No constants are given. Whether binding was seen depends on the method and setting. Binding seen in cells or lysates may run through a third protein. Some entries that bind do so weakly or less than the wild type.
# Columns and labels:
# Flag-REGγ = Flag-REGγ (UniProt P61289); assay: co-IP; 293T cells transiently transfected with a Flag-tagged and an HA-tagged protein (or Flag vector control); immunoprecipitation with FLAG-M2 agarose beads, immunoblotting
# Flag-PP2Acα = Flag-PP2Acα (UniProt P67775); assay: as above
# [1] = target: endogenous PP2Acα (human (endogenous in AC16)) (UniProt P67775); assay: co-IP; endogenous proteins in AC16 cell lysates; reciprocal immunoprecipitation with an antibody against one partner (IgG control in Fig. 4g, h), co-precipitated partner detected by immunoblotting
# [2] = target: endogenous FoxO3a (human (endogenous in AC16)) (UniProt O43524); assay: as above
# [3] = target: endogenous REGγ (human (endogenous in AC16)) (UniProt P61289); assay: as above
substance,measurement,setting,value
HA-PP2Acα (from UniProt P67775 1-309),binding,Flag-REGγ,binds
HA-REGγ (from UniProt P61289 1-254),binding,Flag-PP2Acα,binds
endogenous FoxO3a (from UniProt O43524 1-673),binding,[1],binds
endogenous PP2Acα (from UniProt P67775 1-309),binding,[2],binds
same,binding,[3],binds
endogenous REGγ (from UniProt P61289 1-254),binding,[1],binds
